For the assay, the target named is RIPK3, endogenous (human (endogenous in HT-29)) (UniProt Q9Y572). Description: co-IP; HT-29 cells, endogenous necrosome; T/Bi/Z for 3 h with or without 20 μM erlotinib or gefitinib; anti-RIPK3 antibodies and protein G agarose.

The chains behind the UniProt entries cited, without tags or fusion partners.
UniProt Q9Y572: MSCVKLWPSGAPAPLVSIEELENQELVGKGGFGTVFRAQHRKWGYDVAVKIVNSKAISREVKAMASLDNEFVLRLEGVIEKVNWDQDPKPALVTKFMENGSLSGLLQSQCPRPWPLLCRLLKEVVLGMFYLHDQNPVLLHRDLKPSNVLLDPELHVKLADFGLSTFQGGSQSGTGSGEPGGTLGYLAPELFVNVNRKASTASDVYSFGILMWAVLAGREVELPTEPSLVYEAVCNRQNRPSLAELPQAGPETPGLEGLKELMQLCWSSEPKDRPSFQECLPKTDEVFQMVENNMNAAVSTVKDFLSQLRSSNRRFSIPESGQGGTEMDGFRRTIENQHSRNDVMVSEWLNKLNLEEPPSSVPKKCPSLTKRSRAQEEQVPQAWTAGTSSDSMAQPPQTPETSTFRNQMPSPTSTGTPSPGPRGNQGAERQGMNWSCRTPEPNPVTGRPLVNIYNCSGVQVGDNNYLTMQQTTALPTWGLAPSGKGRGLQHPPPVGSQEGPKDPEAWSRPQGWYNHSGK
UniProt Q13546: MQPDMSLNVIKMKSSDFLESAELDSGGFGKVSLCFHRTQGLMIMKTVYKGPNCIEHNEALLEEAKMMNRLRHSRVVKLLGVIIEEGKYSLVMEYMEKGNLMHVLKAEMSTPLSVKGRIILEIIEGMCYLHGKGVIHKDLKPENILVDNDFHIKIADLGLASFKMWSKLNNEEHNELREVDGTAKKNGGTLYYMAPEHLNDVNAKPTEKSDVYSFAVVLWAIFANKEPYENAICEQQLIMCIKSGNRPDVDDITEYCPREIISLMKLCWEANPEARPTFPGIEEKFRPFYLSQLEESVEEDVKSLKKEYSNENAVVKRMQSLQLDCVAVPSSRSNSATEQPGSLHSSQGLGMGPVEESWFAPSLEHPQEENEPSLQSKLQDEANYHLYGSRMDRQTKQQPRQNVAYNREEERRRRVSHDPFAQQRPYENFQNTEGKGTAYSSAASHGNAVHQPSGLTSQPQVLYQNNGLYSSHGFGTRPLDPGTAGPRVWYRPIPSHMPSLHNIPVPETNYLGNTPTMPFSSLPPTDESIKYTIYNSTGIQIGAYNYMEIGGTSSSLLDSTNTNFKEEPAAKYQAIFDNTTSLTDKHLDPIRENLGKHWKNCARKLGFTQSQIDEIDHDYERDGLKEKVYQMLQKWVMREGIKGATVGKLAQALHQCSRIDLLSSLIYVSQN

No constants are given. Whether binding was seen depends on the method and setting. Binding seen in cells or lysates may run through a third protein. Some entries that bind do so weakly or less than the wild type.

For “receptor interacting protein kinase 1 (RIPK1), endogenous (from UniProt Q13546 1-671)”, the binding result is “binds”.

Values taken from paper PMC11445491.
